Survivor count and T/C data for 27 compounds are collected here from PubChem BioAssay AID248 (DTP/NCI, 2004).

This assay has as its system L1210 leukemia ip in BDF1 mice, survival T/C. Description: NCI In Vivo Anticancer Drug Screen. Data for tumor model L1210 Leukemia (intraperitoneal) in B6D2F1 (BDF1) mice. The note with it: T/C endpoint: mean survival time, higher T/C = longer survival.
[1] abbreviates: dose: 400.0 mg/kg/injection, schedule: Q01DX001 (ip), vehicle: saline.
Where [2] appears, read: dose: 100.0 mg/kg/injection, schedule: Q01DX009 (ip), vehicle: Klucel (hydroxypropylcellulose) (HPC).
The mark [3] stands for this setting: dose: 200.0 mg/kg/injection, schedule: Q01DX009 (ip), vehicle: Klucel (hydroxypropylcellulose) (HPC).
Where [4] appears, read: dose: 400.0 mg/kg/injection, schedule: Q01DX009 (ip), vehicle: Klucel (hydroxypropylcellulose) (HPC).
[5] abbreviates: dose: 200.0 mg/kg/injection, schedule: Q04DX003 (ip), vehicle: saline.
The mark [6] stands for this setting: dose: 400.0 mg/kg/injection, schedule: Q04DX003 (ip), vehicle: saline.
[7] abbreviates: dose: 50.0 mg/kg/injection, schedule: Q01DX009 (ip), vehicle: Klucel (hydroxypropylcellulose) (HPC).
[8] abbreviates: dose: 200.0 mg/kg/injection, schedule: Q01DX001 (ip), vehicle: saline.
Where [9] appears, read: dose: 400.0 mg/kg/injection, schedule: Q01DX009 (ip), vehicle: saline with Tween-80.
Setting [10] is: dose: 200.0 mg/kg/injection, schedule: Q04DX002 (ip), vehicle: saline with Tween-80.
Setting [11] is: dose: 400.0 mg/kg/injection, schedule: Q04DX002 (ip), vehicle: saline with Tween-80.

Each structure is given as a SMILES string. The list is a part of this screen's results and no random one: it gathers tests that were run many times, whatever their T/C, doses with no T/C, and many T/C values between a quarter and a half above the control. Further doses and runs are listed elsewhere. T/C is the treated group as % of the vehicle group. Some doses have a count of surviving animals in place of a T/C: the source files T/C as zero there, which appears to mark a toxic dose or a test without result, not a measured value. Some survivor counts are full or nearly so, which does not show that the dose was tolerated: survival well below the control is almost never listed, so the zero probably covers shortened survival too. Survivors were counted at the toxicity check, usually on the fifth day, unless a day is given; later deaths do not show. Schedules are NCI's codes, read here as Q, the interval in days (D) or hours (H), X, the number of doses. Some schedule codes hold Z or #, which are not explained here. Some structures stand for samples that the source files as different forms (salt, stereo form or complex); doses refer to the form tested. For survival time, this PubChem deposit counts one and a half times the control or more as active, and values a quarter to a half above the control carry no call in these data; other NCI protocols may use other cut-offs.

Take `Oc1c(Cl)c(Cl)cc(Cl)c1Cc1c(Cl)cc(Cl)c(Cl)c1[O][Pb]([c]1ccccc1)([c]1ccccc1)[c]1ccccc1`: the survivor count is, setting by setting: (dose: 25.0 mg/kg/injection, schedule: Q01DX009 (ip), vehicle: saline) 3 of 6; (dose: 50.0 mg/kg/injection, schedule: Q04DX002 (ip), vehicle: saline) 2 of 3; (dose: 100.0 mg/kg/injection, schedule: Q04DX002 (ip), vehicle: saline) 3 of 3; (dose: 200.0 mg/kg/injection, schedule: Q04DX002 (ip), vehicle: saline) 0 of 3; (dose: 400.0 mg/kg/injection, schedule: Q04DX002 (ip), vehicle: saline) 0 of 3.
Take `O=C1NC2C(NC(=O)N2Cl)N1Cl` (configuration not stated): the survivor count (dose: 20.0 mg/kg/injection, schedule: Q01DX Z (ip), vehicle: carboxymethylcellulose (CMC)) is on record as 6 of 6; the survivor count (dose: 80.0 mg/kg/injection, schedule: Q01DX Z (ip), vehicle: carboxymethylcellulose (CMC)) was 1 of 6; the survivor count (dose: 160.0 mg/kg/injection, schedule: Q01DX Z (ip), vehicle: carboxymethylcellulose (CMC)) is 0 of 6; the survivor count (dose: 200.0 mg/kg/injection, schedule: Q04DX003 (ip), vehicle: saline with Tween-80) is given as 0 of 6.
For the compound `CCN1CCCCCCCCCC(=N/O)/C(=N\O)C1`, under setting [1], the survivor count was 0 of 6.
On to `C(=Nc1ccncc1)c1c[nH]c2ccccc12`, for which the survivor count is on record as 0 of 6 under setting [2], 0 of 6 under setting [3] and 0 of 6 under setting [4].
As for `COc1cccc(C)c1-n1c(C)cc(C(=O)O)c1C`, the survivor count is, setting by setting: (dose: 100.0 mg/kg/injection, schedule: Q04DX003 (ip), vehicle: saline) 6 of 6; under setting [5], 6 of 6; under setting [6], 6 of 6.
Consider `CCOC(=O)C1CSCN1` (configuration not stated), for which, under setting [6], the survivor count is 1 of 6.
For `CN(C(=O)NCCCl)C1CCCCC1`, the survivor count is given as 0 of 6 (dose: 150.0 mg/kg/injection, schedule: Q01DX001 (ip), vehicle: carboxymethylcellulose (CMC)) and 0 of 6 (dose: 300.0 mg/kg/injection, schedule: Q01DX001 (ip), vehicle: carboxymethylcellulose (CMC)).
`CCCOc1ccc(-c2nc(-c3ccc(N=Cc4ccc(N(CCOS(C)(=O)=O)CCOS(C)(=O)=O)cc4C)cc3)cs2)cc1`: the T/C runs as follows: (dose: 33.0 mg/kg/injection, schedule: Q01DX009 (ip), vehicle: Klucel (hydroxypropylcellulose) (HPC)) 131 % of control; under setting [7], 125 % of control.
For `CCCCC(CCCC)NCC(C)OC(=O)c1ccc(N)cc1` (configuration not stated), the survivor count runs as follows: (dose: 150.0 mg/kg/injection, schedule: Q01DX001 (ip), vehicle: other) 0 of 6; (dose: 300.0 mg/kg/injection, schedule: Q01DX001 (ip), vehicle: other) 0 of 6.
For `CC/C(=N\N=C(N)N)c1ccc(NC(=S)Nc2ccccc2)cc1`, the survivor count (dose: 160.0 mg/kg/injection, schedule: Q01DX009 (ip), vehicle: saline) was 4 of 6 and the survivor count (dose: 320.0 mg/kg/injection, schedule: Q01DX009 (ip), vehicle: saline) is 0 of 6.
On to `CCCCOP(=O)(OCCCC)C(O)CCC` (configuration not stated), for which the survivor count is recorded as 6 of 6 (dose: 400.0 mg/kg/injection, schedule: Q01DX001 (ip), vehicle: saline with Tween-80) and 5 of 6 (dose: 400.0 mg/kg/injection, schedule: Q04DX003 (ip), vehicle: saline with Tween-80).
In the case of `CCCCNc1ccc(S(=O)(=O)c2ccc(NCCCC)c([N+](=O)[O-])c2)cc1[N+](=O)[O-]`, the survivor count runs as follows: (dose: 50.0 mg/kg/injection, schedule: Q01DX009 (ip), vehicle: DMSO) 3 of 3; (dose: 100.0 mg/kg/injection, schedule: Q01DX009 (ip), vehicle: DMSO) 2 of 3; (dose: 200.0 mg/kg/injection, schedule: Q01DX009 (ip), vehicle: DMSO) 2 of 3; (dose: 400.0 mg/kg/injection, schedule: Q01DX009 (ip), vehicle: DMSO) 0 of 3.
Take `C[S+](C)C`: the survivor count is given as 2 of 6 under setting [2]; 1 of 6 under setting [8]; 0 of 6 under setting [3]; 0 of 6 under setting [5]; 0 of 6 under setting [1]; 0 of 6 under setting [6].
Regarding `COc1cccc(/C=N\NC(=O)CCCC(=O)N/N=C/c2cccc(OC)c2)c1`, the survivor count under setting [8] was 4 of 4.
With `Cc1nnc2ncnc(SCc3ccccc3)c2n1`, for the setting “dose: 50.0 mg/kg/injection, schedule: Q01DX001 (ip), vehicle: Klucel (hydroxypropylcellulose) (HPC)”, the survivor count is 6 of 6.
Consider `COc1cc(C(=O)N2CCCCCCC2)cc(OC)c1OC`, for which the survivor count (dose: 400.0 mg/kg/injection, schedule: Q04DX003 (ip), vehicle: Klucel (hydroxypropylcellulose) (HPC)) is recorded as 0 of 3.
`CC(=O)NC1CCCC(C)C1` (configuration not stated): under setting [9], the survivor count is 0 of 6.
In the case of `S=P(c1ccccc1)(N1CC1)N1CC1`, the survivor count is reported as 5 of 6 (dose: 200.0 mg/kg/injection, schedule: Q01DX Z (ip), vehicle: saline); 3 of 3 under setting [10]; 4 of 6 (dose: 400.0 mg/kg/injection, schedule: Q01DX Z (ip), vehicle: saline); 3 of 3 under setting [11].
On to `Cc1cccc(Br)[n+]1[O-]`, for which the survivor count was 5 of 6 (dose: 200.0 mg/kg/injection, schedule: Q01DX009 (ip), vehicle: saline) and 1 of 6 under setting [6].
With `Cn1cnc2c(SCc3ccccc3)ncnc21`, the T/C by setting is: (dose: 150.0 mg/kg/injection, schedule: Q01DX009 (ip), vehicle: saline with Tween-80) 125 % of control; (dose: 300.0 mg/kg/injection, schedule: Q01DX009 (ip), vehicle: saline with Tween-80) 129 % of control; under setting [9], 138 % of control.
As for `CC(C)c1cccc(OS(=O)(=O)c2ccccc2[N+](=O)[O-])c1`, under “dose: 200.0 mg/kg/injection, schedule: Q04DX003 (ip), vehicle: Klucel (hydroxypropylcellulose) (HPC)”, the survivor count is reported as 6 of 6.
In the case of `O=NN(CC(F)(F)F)C(=O)NC1CCCCC1` (tested in a mixture with another compound), the survivor count was 3 of 6 (dose: 500.0 mg/kg/injection, schedule: Q01DX001 (ip), vehicle: other) and 0 of 6 (dose: 750.0 mg/kg/injection, schedule: Q01DX001 (ip), vehicle: other).
Regarding `CCC(C)C(C)NC(C)=O` (configuration not stated), the survivor count under setting [6] is reported as 2 of 6.
As to `CC1(C#N)CCc2c(ccc3ccccc23)C1=O` (configuration not stated), where the note is “dose: 400.0 mg/kg/injection, schedule: Q01DX009 (ip), vehicle: saline”, the survivor count is given as 6 of 6.
As to `O=[N+]([O-])c1ccc(S(=O)(=O)OCc2ccccc2COS(=O)(=O)c2ccc([N+](=O)[O-])cc2)cc1`, the survivor count is, setting by setting: under setting [10], 3 of 3; under setting [11], 3 of 3.
Turning to `Cc1ccc([N+](=O)[O-])cc1NC(=O)Nc1cccc(F)c1`, the survivor count by setting is: (dose: 25.0 mg/kg/injection, schedule: Q01DX009 (ip), vehicle: Klucel (hydroxypropylcellulose) (HPC)) 6 of 6; under setting [7], 6 of 6; under setting [2], 6 of 6; under setting [3], 6 of 6.
Take `COc1ccccc1NC(=S)Nc1ccccc1OC`: under setting [4], the survivor count is on record as 3 of 6.
